Test results taken from publication PMC3161108.

T1: HA-tagged zebrafish RNR M1 subunit (R1) (zebrafish) (UniProt P79732)
T1 sequence: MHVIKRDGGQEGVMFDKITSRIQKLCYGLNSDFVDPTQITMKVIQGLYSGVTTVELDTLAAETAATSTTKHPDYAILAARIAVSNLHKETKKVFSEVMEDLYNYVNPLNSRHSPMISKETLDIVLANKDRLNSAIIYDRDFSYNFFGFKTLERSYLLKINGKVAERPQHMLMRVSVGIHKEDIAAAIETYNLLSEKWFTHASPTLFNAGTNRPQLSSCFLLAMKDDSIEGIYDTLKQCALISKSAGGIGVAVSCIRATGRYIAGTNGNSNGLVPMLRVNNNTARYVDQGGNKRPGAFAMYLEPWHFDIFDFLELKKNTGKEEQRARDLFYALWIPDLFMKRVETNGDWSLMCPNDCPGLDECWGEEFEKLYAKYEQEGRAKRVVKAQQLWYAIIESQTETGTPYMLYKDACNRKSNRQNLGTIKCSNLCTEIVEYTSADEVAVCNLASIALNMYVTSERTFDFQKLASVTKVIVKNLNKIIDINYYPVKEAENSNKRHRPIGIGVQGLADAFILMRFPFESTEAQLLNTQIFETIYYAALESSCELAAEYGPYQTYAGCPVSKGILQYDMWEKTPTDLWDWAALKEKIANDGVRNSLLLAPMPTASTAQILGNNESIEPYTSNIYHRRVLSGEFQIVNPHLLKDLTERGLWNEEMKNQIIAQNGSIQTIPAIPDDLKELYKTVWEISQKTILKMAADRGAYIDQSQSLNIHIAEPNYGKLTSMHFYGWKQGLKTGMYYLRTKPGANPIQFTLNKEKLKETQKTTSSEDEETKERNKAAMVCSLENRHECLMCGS

B1: HA-tagged zebrafish RNR M1 subunit (R1) (protein, UniProt P79732 1-794)
chain: T1 sequence

Experiments:
Experiment in all cases: co-IP; 293T cells co-transfected with HA-R1 and one of the Flag-R2 isoforms; at 45 h protein extracts immunoprecipitated with anti-HA or anti-Flag antibodies; Western blot with the other antibody
[1] = target: T1, HA-tagged zebrafish RNR M1 subunit (R1) (zebrafish)
[2] = target: Flag-tagged zebrafish Δ52R2 (N-terminally truncated R2 isoform encoded by R2_v3d) (zebrafish)
[3] = target: Flag-tagged zebrafish Δ29R2 (N-terminally truncated R2 isoform encoded by R2_v3c) (zebrafish)

Molecule	binding [1]	binding [2]	binding [3]
Flag-tagged zebrafish Δ52R2 (N-terminally truncated R2 isoform encoded by R2_v3d)	binds	–	–
Flag-tagged zebrafish Δ29R2 (N-terminally truncated R2 isoform encoded by R2_v3c)	binds	–	–
B1	–	binds	binds

Results are given in words; binding and its absence hold for the method and conditions named. In cells and extracts the contact can be indirect. Binding can be weak; no strength is given. Sequences can lack the tags named with a protein.
